# Primary screen of a compound library

Chains of the proteins cited; added tags and fusions are not shown.
UniProt E9BF75, entry or part of it: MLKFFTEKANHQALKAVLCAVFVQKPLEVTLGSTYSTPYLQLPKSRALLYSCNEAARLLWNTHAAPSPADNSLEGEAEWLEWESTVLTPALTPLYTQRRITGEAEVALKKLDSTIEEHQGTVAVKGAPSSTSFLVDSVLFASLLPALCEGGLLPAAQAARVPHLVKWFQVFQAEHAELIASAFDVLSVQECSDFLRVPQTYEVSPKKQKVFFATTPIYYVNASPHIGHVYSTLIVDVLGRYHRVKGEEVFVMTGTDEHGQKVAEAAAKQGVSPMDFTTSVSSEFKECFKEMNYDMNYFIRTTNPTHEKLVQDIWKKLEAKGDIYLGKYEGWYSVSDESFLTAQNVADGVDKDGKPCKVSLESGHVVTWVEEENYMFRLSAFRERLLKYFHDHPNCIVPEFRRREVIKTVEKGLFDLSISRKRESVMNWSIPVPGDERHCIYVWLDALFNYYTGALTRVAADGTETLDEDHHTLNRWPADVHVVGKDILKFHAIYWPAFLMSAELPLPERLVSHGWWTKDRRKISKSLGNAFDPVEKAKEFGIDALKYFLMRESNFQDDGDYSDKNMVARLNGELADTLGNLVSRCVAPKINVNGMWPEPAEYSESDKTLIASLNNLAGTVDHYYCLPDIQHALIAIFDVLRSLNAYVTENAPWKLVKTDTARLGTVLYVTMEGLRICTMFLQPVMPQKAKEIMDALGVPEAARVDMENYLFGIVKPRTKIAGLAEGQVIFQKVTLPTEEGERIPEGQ

The values are deposited in ChEMBL (CHEMBL3988442, “University of Dundee, Small-Polar-MMV Screening Library” (2021)).

A: 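Methionyl-tRNA synthetase (putative), Leishmania donovani (UniProt E9BF75). Primary screen of methionyl-tRNA synthetase; the read-out is not stated. The test concentration is not given. Values are per cent inhibition. Size under these conditions: about 68,000 compounds, about 24 of them at 50% or above in at least one test.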
B: 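Assay on Mycobacterium tuberculosis, filed only as a heat shock assay from Cornell; the read-out is not stated. The concentration is filed as 10 mM, unlikely as a test dose, so the dose is not known. Higher reads as stronger inhibition (inferred: compounds with an IC50 in retests scored well above the rest). About 69,000 compounds were tested under these conditions; 1.4% (about 930) showed 50% or more at least once.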

Results are percentages, as filed. The record does not define 0% and 100%; most values in the screen are far below 50% and negative numbers occur (in some assays of this library far below -100). Compounds were drawn at random from those tested, without regard to their results. A dash means the value is not listed here; it may have been measured.

| # | Compound | A | B |
|---|---|---|---|
| 1 | `CC[C@@H]1N(Cc2ccc(F)cc2)CCC[C@]12CCC(=O)N2C` | 6.09 | - |
| 2 | `Cc1csc(C(Cc2ccsc2)NC(=O)CN(C)Cc2cccnc2)n1.Cl` (configuration not stated) | - | -9.769 |
| 3 | `O=C(O)C(F)(F)F.O=C(O)C(F)(F)F.O=C(O)C(F)(F)F.c1cnc(N2CCC3(CCN(Cc4cccnc4)CC3)CC2)nc1` | - | -9.536 |
| 4 | `Cn1ccnc1C(=O)N1CCC2(CCCN2CC2CC2)CC1.O=C(O)C(F)(F)F` | - | -8.302 |
| 5 | `[H][C@]12CN(CCCC(=O)c3ccccc3)CC[C@@]1(O)CCN(S(C)(=O)=O)C2` | - | 2.049 |
| 6 | `Cc1noc(C)c1CN(C)C(=O)c1ccc(NC2CC2)nc1` | 18.9 | -10.99 |
| 7 | `Cc1noc(C)c1CN1CCN(C(=O)C(C(C)C)n2cncn2)CC1` (configuration not stated) | 7.357 | -12.63 |
| 8 | `CNC(C)Cc1ccccc1Sc1ccc(O)cc1` (configuration not stated) | 15.79 | - |
| 9 | `COc1ccc2oc(C(C)NC(=O)NCc3noc(C)n3)c(C)c2c1` (configuration not stated) | 19.83 | -2.337 |
| 10 | `COc1ccccc1C(=O)N1CCCC1c1ncc2c(n1)CCNC2` (configuration not stated) | 12 | - |
| 11 | `Cc1nc(CCC(=O)NC2CCC2)cc(C2CCNCC2)n1` | 7.317 | -15.37 |
| 12 | `CCCN(Cc1ccccc1O)C(=O)Nc1cnn(CCOC)c1` | 7.784 | 4.926 |
| 13 | `CN(C)c1ncc2c(c1C(=O)O)CCN(Cc1ccco1)C2` | 6.011 | - |
| 14 | `OC1CCCOC12CCN(Cc1nnc(-c3cccnc3)o1)CC2` (configuration not stated) | 2.899 | 10.24 |
| 15 | `Cc1nc(C)n(CC2CN(CCOc3cccc(C#N)c3)CCO2)n1` (configuration not stated) | 14.86 | -13.21 |
| 16 | `Cc1ccc(CN2CC[C@@H](NC(=O)c3cccnc3)[C@H](O)C2)s1` | 15.58 | -23.08 |
| 17 | `CCOCCn1c(=O)n(CCC(C)C)c2ncc(C(=O)O)cc21` | 1.742 | -2.109 |
| 18 | `CCOc1cc(C(=O)N2CCCC(n3nc(C)nc3C)C2)ccn1` (configuration not stated) | 14.8 | -4.886 |
| 19 | `O=C([C@H]1CCCN1)N1CC2(CCNCC2)c2cc(Cl)ccc21` | 4.396 | - |
| 20 | `CCOCc1ccc(NCc2cnc(N3CCN(C)CC3)nc2)cc1` | 11.42 | -15.26 |
| 21 | `O=C(O)C(F)(F)F.c1coc(CN2Cc3ccnn3CC(COCC3CC3)C2)c1` (configuration not stated) | - | -24.77 |
| 22 | `CC(=O)c1cccc(OCCCC(=O)N(C)Cc2cscn2)c1` | 0 | -19.35 |
| 23 | `CCCc1nc(N2CCCC(C)C2)c2c(n1)c(C)nn2CC` (configuration not stated) | 7.368 | 36.83 |
| 24 | `CC(C)(CCS(C)(=O)=O)CNc1ccc2ccc(F)cc2n1` | -0.2793 | -7.55 |
| 25 | `CS(=O)(=O)N1CCCC12CCN(Cc1ccoc1)CC2` | 6.011 | 16.26 |
| 26 | `O=C1NC2(CCN(C(=O)c3ccc(Cl)cn3)CC2)CC1c1ccccc1` (configuration not stated) | 1.124 | -30.14 |
| 27 | `CCOc1ccccc1NC(C)C(=O)N(C)Cc1cccc(F)c1` (configuration not stated) | 5.978 | -7.293 |
| 28 | `Cc1cccn2cc(CN3CCC(N4CCN(C)C4=O)CC3)nc12` | 12.04 | -2.459 |
| 29 | `[H][C@]12CCCCN1CCC[C@@]2(O)Cn1cnc2cc(OC)ccc21` | - | -27.53 |
| 30 | `c1cnc(N2CCO[C@H]3CN(Cc4ccsc4)C[C@H]32)nc1` | 16.83 | - |
| 31 | `c1ccc(OCc2nnc3n2CCN(CC2CC2)C3)nc1` | 11.11 | - |
| 32 | `c1cnc(N2CCO[C@H]3CN(Cc4csnn4)C[C@H]32)nc1` | 7.302 | - |
| 33 | `COc1cc2c(cc1CNC(=O)Cc1ccc(C)nc1)OC(C)C2` (configuration not stated) | 14.78 | -22.32 |
| 34 | `C1CC(CO[C@@H]2CC[C@H]3[C@H]2OCCN3CC2CCOCC2)CCO1` | 17.37 | - |
| 35 | `Cc1[nH]ccc1C(=O)N1C[C@H]2CC[C@@H]1CN(S(=O)(=O)N(C)C)C2` | 16.42 | - |
| 36 | `O=C(O)C(F)(F)F.O=C(O)C(F)(F)F.[H][C@@]12C[C@@H](C(=O)Nc3cccnc3)CN(Cc3ccsc3)[C@]1([H])CCO2` | - | -0.5127 |
| 37 | `CN(Cc1nc(Cc2cccc(C(F)(F)F)c2)no1)C1CCOCC1` | 8.616 | 10.01 |
| 38 | `Cc1n[nH]c(C)c1C1CCCN1C(=O)c1cc(Br)c[nH]1` (configuration not stated) | 7.317 | -15.26 |
| 39 | `COc1cccc2c(=O)n(C3CCNCC3)cnc12` | 12.1 | 7.3 |
| 40 | `Cc1ccc(F)c(C(=O)Nc2c(C(N)=O)n[nH]c2C)c1` | 13.13 | 10.9 |
| 41 | `CN1C(=O)C2(CCN(CC3CC3)CC2)c2ccccc21.O=C(O)C(F)(F)F` | - | 3.272 |
| 42 | `CCOCCOc1ccccc1C(=O)N1C[C@H](C2CC2)[C@@H](N)C1` | 7.035 | -4.841 |
| 43 | `O=C(c1ncccn1)N1CCC2(CC1)COC(COc1ccccn1)C2` (configuration not stated) | 11.11 | - |
| 44 | `O=C(NC1CCCN(c2ccc(OC(F)F)cc2)C1)c1c[nH]nn1` (configuration not stated) | 11.7 | -0.711 |
| 45 | `CN(C)c1nccc(N(C)Cc2ncnn2C)n1` | 12.81 | 6.125 |
| 46 | `CO[C@@H]1CC[C@H]2[C@H]1OCCN2C(=O)c1ccco1` | 10.27 | - |
| 47 | `c1ccc(-n2ncc(CN3CCCC(Cn4cncn4)C3)n2)cc1` (configuration not stated) | 20.34 | 0.1196 |
| 48 | `CCc1ccc(C2CC(=O)Nc3cc(NS(C)(=O)=O)ccc32)o1` (configuration not stated) | 18.62 | 9.67 |
| 49 | `CCN(CC)CCSc1nnc(N2CCN(c3ccccc3)CC2)s1` | 5.59 | -13.95 |
| 50 | `O=C(Cc1ccsc1)N1CCC[C@@H]1Cn1c(=O)oc2ccccc21` | 11.63 | -6.388 |
| 51 | `CCCc1nnsc1C(=O)NCC(O)c1ccc(SC)cc1` (configuration not stated) | 7.434 | 4.209 |
| 52 | `c1ccc(NCc2ccsc2)c(Cn2cncn2)c1` | 8.564 | 5.646 |
| 53 | `CC(C)=CCN1CCC2(CC1)CC(=O)N(Cc1cc(F)cc(F)c1)C2` | 15.77 | 23.38 |
| 54 | `Cn1ccc(CN2CCCC(CNS(C)(=O)=O)C2)cc1=O` (configuration not stated) | 3.064 | -3.065 |
| 55 | `O=C(NCC1CCC1)c1cccc(CN2CCS(=O)(=O)CC2)c1` | 9.044 | 12.45 |
| 56 | `O=C(Nc1cc(N2CCOCC2)ncn1)c1cnccn1` | 15.83 | 6.906 |
| 57 | `COc1ccc(CCC(=O)NCc2cc(C)on2)cc1` | 4.317 | 18.14 |
| 58 | `CCc1ccc(CN(Cc2ccco2)C(C)C(C)C)nc1` (configuration not stated) | 13.24 | 2.964 |

Once more, the final 7:

Compound,A,B
c1ccc(NCc2ccsc2)c(Cn2cncn2)c1,8.564,5.646
CC(C)=CCN1CCC2(CC1)CC(=O)N(Cc1cc(F)cc(F)c1)C2,15.77,23.38
Cn1ccc(CN2CCCC(CNS(C)(=O)=O)C2)cc1=O (configuration not stated),3.064,-3.065
O=C(NCC1CCC1)c1cccc(CN2CCS(=O)(=O)CC2)c1,9.044,12.45
O=C(Nc1cc(N2CCOCC2)ncn1)c1cnccn1,15.83,6.906
COc1ccc(CCC(=O)NCc2cc(C)on2)cc1,4.317,18.14
CCc1ccc(CN(Cc2ccco2)C(C)C(C)C)nc1 (configuration not stated),13.24,2.964